Assay results reported in patent US10960005B2, “Treatment of relapsed and/or refractory solid tumors and non-hodgkin's lymphomas” (CELGENE QUANTICEL RESEARCH, INC., priority 2016, dated 2021).
At least one compound was matched to its structure with a doubt left.

The chains behind the UniProt entries cited, without tags or fusion partners.
UniProt P08183, whole entry: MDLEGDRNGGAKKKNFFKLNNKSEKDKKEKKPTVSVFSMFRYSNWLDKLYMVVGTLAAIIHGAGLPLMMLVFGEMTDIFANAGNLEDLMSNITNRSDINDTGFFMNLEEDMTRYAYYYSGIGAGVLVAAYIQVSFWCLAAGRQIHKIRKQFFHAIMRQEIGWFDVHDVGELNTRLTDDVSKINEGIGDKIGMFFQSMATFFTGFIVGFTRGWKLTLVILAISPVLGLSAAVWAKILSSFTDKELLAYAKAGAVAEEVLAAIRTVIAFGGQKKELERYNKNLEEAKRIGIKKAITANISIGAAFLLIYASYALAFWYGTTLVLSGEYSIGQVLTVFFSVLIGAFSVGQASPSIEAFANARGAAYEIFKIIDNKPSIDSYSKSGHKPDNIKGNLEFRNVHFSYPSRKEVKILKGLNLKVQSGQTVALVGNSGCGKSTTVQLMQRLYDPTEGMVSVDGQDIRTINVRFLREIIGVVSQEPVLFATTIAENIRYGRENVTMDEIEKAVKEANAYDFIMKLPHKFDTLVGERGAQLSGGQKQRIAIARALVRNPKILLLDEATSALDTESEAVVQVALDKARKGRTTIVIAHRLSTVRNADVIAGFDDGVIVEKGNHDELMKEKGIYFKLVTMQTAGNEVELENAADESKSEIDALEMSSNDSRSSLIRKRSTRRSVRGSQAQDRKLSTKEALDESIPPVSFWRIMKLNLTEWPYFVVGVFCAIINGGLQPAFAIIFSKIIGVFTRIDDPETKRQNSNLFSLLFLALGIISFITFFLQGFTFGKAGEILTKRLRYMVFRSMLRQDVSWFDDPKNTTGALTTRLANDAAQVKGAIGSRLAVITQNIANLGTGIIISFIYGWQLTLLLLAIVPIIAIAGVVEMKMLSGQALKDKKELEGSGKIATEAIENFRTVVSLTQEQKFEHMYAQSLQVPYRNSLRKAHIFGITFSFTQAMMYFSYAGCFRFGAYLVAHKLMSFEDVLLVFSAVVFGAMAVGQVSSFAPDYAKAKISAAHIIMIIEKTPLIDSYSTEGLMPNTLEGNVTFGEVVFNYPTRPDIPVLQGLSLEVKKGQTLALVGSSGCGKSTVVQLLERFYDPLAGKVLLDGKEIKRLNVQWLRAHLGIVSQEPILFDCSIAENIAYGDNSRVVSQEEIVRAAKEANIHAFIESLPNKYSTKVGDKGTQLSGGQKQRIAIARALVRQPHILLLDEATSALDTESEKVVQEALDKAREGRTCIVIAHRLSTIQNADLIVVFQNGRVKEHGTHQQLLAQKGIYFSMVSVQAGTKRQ

Target: MDR1 (human P-gp) MDCK cells (Homo sapiens (Human), UniProt P08183)
Test: Permeability in MDR1 (human P-gp) MDCK cells
Conditions: A→B direction

Compound: COc1ccc(-c2c(-c3ccc(C#N)c(F)c3)nc(N3CCC(N)CC3)n(C)c2=O)cc1F [Compound A]
- permeability: 0.5×10^31 6 cm/s
